From patent US7652031B2, “Compounds which mimic the chemical and biological properties of discodermolide” (priority 2001, dated 2010)

Key:
[1] = tested on: SKOV3 cells; assay: Cytotoxicity assay, SKOV3 cells; format: cell-based; conditions: Homo sapiens, SK-OV-3, 72 h, read-out: SKOV3 (IC50(μm))
Description: The SKOV3 ovarian carcinoma cell line was obtained from Dr. V. Ling and was maintained as described in McDaid, H. M., et al., “Structure-activity profiles of eleutherobin analogs and their cross-resistance in Taxol-resistant cell lines”, Cancer Chemother. Pharmacol., 1999, 44, 131-137.
(§1) A549 cells were seeded in triplicate at a density of 1×10^4 cells/ml in 6-well plates and allowed to attach for 24 h. After incubation with various drug concentrations for 72 h, adherent cells were trypsinized and counted (Coulter Counter model Z1; Coulter Corp., Miami, Fla.), and the IC50 was determined. SKOV3 cells were seeded at a density of 2×10^4 cells/ml and the above procedure followed.

[2] = tested on: A549 cells; assay: Cytotoxicity assay, A549 cells; format: cell-based; conditions: Homo sapiens, A549, 72 h, read-out: A549 (IC50(μm))
Description: The A549 lung carcinoma cell line was maintained as described in Kavallaris, M., et al., “Taxol-resistant epithelial ovarian tumors are associated with altered expression of specific β-tubulin isotypes”, J. Clin. Invest., 1997, 100, 1282-1293.
as §1

`CC(=O)O[C@H]1C(=O)[C@@]2(C)[C@H]([C@H](OC(=O)c3ccccc3)[C@]3(O)C[C@H](OC(=O)[C@H](O)[C@@H](NC(=O)c4ccccc4)c4ccccc4)C(C)=C1C3(C)C)[C@]1(OC(C)=O)CO[C@@H]1C[C@@H]2O` [Taxol] was tested. Which IC50 [1] did it give?
Its IC50 is 3.3 ± 0.5 nM.

What about the IC50 [2] of the same compound?
Its IC50 is 1.4 nM.
